From PMC9584938
No constants are given. Whether binding was seen depends on the method and setting. For part of these data: In cells and extracts the contact can be indirect. Some binding calls cover weakened binding; strength is not graded here. For part of these data: Where a sequence is shown, tags or fusion partners need not be part of it. Blank lines part the entries; values can stand above or below the binder they belong to.

Experiments:
[1] = biological target: T1, PPT1, lysosomal hydrolase of the palmitoyl protein thioesterase family (human (endogenous in HEK293)), P50897; assay: cross-linking; XL-LC-MS/MS: lysosome-enriched fractions (SPIONs) of HEK293 cells, intact and disrupted, 1 mg/mL protein in isolation buffer, 0.25 mM DSSO, 30 min at room temperature; XlinkX, FDR 5 %; details: remark: other sources report otherwise
T1 chain: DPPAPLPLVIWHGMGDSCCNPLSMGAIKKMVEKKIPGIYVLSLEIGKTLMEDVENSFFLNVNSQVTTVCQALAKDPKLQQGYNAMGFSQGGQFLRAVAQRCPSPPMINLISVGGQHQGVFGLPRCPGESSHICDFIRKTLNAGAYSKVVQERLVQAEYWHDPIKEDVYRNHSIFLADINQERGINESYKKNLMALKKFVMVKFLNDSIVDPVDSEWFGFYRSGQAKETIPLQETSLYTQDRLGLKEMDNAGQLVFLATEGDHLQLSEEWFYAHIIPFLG

[2] = biological target: FLOT1 (human (endogenous in HEK293)) (UniProt O75955); assay: co-IP; HEK293 lysate (RIPA or 1% NP-40 lysis buffer), 1.6 mg protein with 3 µg antibody overnight at 4 °C, Protein A beads, western blot; control: empty beads
[3] = biological target: FLOT1 (human (endogenous in HEK293)) (UniProt O75955); assay: cross-linking; XL-LC-MS/MS: lysosome-enriched fractions (SPIONs) of HEK293 cells, intact and disrupted, 1 mg/mL protein in isolation buffer, 0.25 mM DSSO, 30 min at room temperature; XlinkX, FDR 5 %
[4] = biological target: full-length FLAG-FLOT1 (UniProt O75955); assay: cross-linking; FLAG-IP eluates of co-transfected WT or Δ100 FLOT1/FLOT2, with and without DSSO cross-linking, SDS-PAGE and western blot
[5] = biological target: full-length FLAG-FLOT1 (UniProt O75955); assay: native gel or EMSA; BN-PAGE (4–12% gradient, digitonin solubilisation, 4 °C) of FLAG-IP eluates of FLOT1-FLAG/FLOT2-FLAG with and without DSSO cross-linking, western blot
[6] = biological target: full-length FLAG-FLOT1 (UniProt O75955); assay: cross-linking; XL-LC-MS/MS: early endosome-enriched fractions (SPIONs pulse-chase) of HEK293 cells overexpressing FLOT1-FLAG and FLOT2-FLAG, intact state, 0.25 mM DSSO, 30 min at room temperature

binding [1]: binds
B1: PPT1, lysosomal hydrolase of the palmitoyl protein thioesterase family, P50897 28-306 (enzyme)
chain: DPPAPLPLVIWHGMGDSCCNPLSMGAIKKMVEKKIPGIYVLSLEIGKTLMEDVENSFFLNVNSQVTTVCQALAKDPKLQQGYNAMGFSQGGQFLRAVAQRCPSPPMINLISVGGQHQGVFGLPRCPGESSHICDFIRKTLNAGAYSKVVQERLVQAEYWHDPIKEDVYRNHSIFLADINQERGINESYKKNLMALKKFVMVKFLNDSIVDPVDSEWFGFYRSGQAKETIPLQETSLYTQDRLGLKEMDNAGQLVFLATEGDHLQLSEEWFYAHIIPFLG

binding [2]: binds
binding [3]: binds
B2: FLOT2 (protein, UniProt Q14254 1-428)
chain: MGNCHTVGPNEALVVSGGCCGSDYKQYVFGGWAWAWWCISDTQRISLEIMTLQPRCEDVETAEGVALTVTGVAQVKIMTEKELLAVACEQFLGKNVQDIKNVVLQTLEGHLRSILGTLTVEQIYQDRDQFAKLVREVAAPDVGRMGIEILSFTIKDVYDKVDYLSSLGKTQTAVVQRDADIGVAEAERDAGIREAECKKEMLDVKFMADTKIADSKRAFELQKSAFSEEVNIKTAEAQLAYELQGAREQQKIRQEEIEIEVVQRKKQIAVEAQEILRTDKELIATVRRPAEAEAHRIQQIAEGEKVKQVLLAQAEAEKIRKIGEAEAAVIEAMGKAEAERMKLKAEAYQKYGDAAKMALVLEALPQIAAKIAAPLTKVDEIVVLSGDNSKVTSEVNRLLAELPASVHALTGVDLSKIPLIKKATGVQV

binding [4]: binds
binding [5]: binds
binding [6]: binds
B3: full-length FLAG-FLOT2 (protein, UniProt Q14254 1-428)
chain: MGNCHTVGPNEALVVSGGCCGSDYKQYVFGGWAWAWWCISDTQRISLEIMTLQPRCEDVETAEGVALTVTGVAQVKIMTEKELLAVACEQFLGKNVQDIKNVVLQTLEGHLRSILGTLTVEQIYQDRDQFAKLVREVAAPDVGRMGIEILSFTIKDVYDKVDYLSSLGKTQTAVVQRDADIGVAEAERDAGIREAECKKEMLDVKFMADTKIADSKRAFELQKSAFSEEVNIKTAEAQLAYELQGAREQQKIRQEEIEIEVVQRKKQIAVEAQEILRTDKELIATVRRPAEAEAHRIQQIAEGEKVKQVLLAQAEAEKIRKIGEAEAAVIEAMGKAEAERMKLKAEAYQKYGDAAKMALVLEALPQIAAKIAAPLTKVDEIVVLSGDNSKVTSEVNRLLAELPASVHALTGVDLSKIPLIKKATGVQV
